# Results from one PubChem assay

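ME-180 cervical cancer cells with an AP-1-driven beta-lactamase reporter, stimulated by EGF; blue/green emission ratio read after 5 hours of compound exposure.
Percent change in reporter activity against controls; negative values mean inhibition and positive values mean activation, so larger magnitude in either direction is the stronger effect.
Calls follow the dose-response shape of the emission ratio; inconclusive is used when emission shifts sharply across the titration, for example from compound fluorescence.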

Values are in %.
Every entry below has the call inconclusive.
Only part of the assay is shown, chiefly results filed as inconclusive.
The first word of each remark tells which way the curve ran; it can be opposite to the aim of the assay.

{"compound": "COc1cccc(Cn2c(=O)c(-c3cc(F)cc(F)c3)nc3cnc(N4CCOCC4)nc32)c1", "tested on / at": "at 7.69 µM (top of the series)", "activity change (%)": "18.68", "curve as filed": "activator"}
{"compound": "Oc1cc2c(cc1O)[C@H]1c3ccccc3CN[C@@H]1CC2", "tested on / at": "at 38 µM (top of the series)", "activity change (%)": "-41.9", "curve as filed": "inhibitor"}
{"compound": "O=c1c(-c2ccc(Cl)cc2)nc2cnc(N3CCNCC3)nc2n1CCc1ccccc1", "tested on / at": "at 7.69 µM (top of the series)", "activity change (%)": "113.5", "curve as filed": "activator"}
{"compound": "CC(=O)Oc1cc(C(F)(F)F)ccc1C(=O)O", "tested on / at": "at 17.2 µM (top of the series)", "activity change (%)": "17.88", "curve as filed": "inhibitor"}
{"compound": "O=C(Nc1ccncc1)c1c(O)c2ccccc2n(Cc2ccccc2)c1=O", "tested on / at": "at 17.2 µM (top of the series)", "activity change (%)": "-46.42", "curve as filed": "inhibitor"}
{"compound": "Cn1c(NCc2ccco2)nc2c1c(=O)n(Cc1ccc(Cl)c(Cl)c1)c(=O)n2C", "tested on / at": "at 17.2 µM (top of the series)", "activity change (%)": "-78.63", "curve as filed": "inhibitor"}
{"compound": "CC(C)C[C@H](NC(=O)[C@@H]1CCCN1C(=O)[C@@H](N)Cc1ccc(O)cc1)C(=O)NCC(N)=O", "tested on / at": "at 17.2 µM (top of the series)", "activity change (%)": "6.393", "curve as filed": "activator"}
{"compound": "O=c1c(-c2ccc(F)cc2)nc2cnc(Oc3cccc(Cl)c3)nc2n1C[C@H]1CCCO1", "tested on / at": "at 7.69 µM (top of the series)", "activity change (%)": "-35.65", "curve as filed": "inhibitor"}
{"compound": "Clc1ccc(COC(Cn2ccnc2)c2ccc(Cl)cc2Cl)c(Cl)c1", "stereo": "stereo not drawn", "tested on / at": "at 17.2 µM (top of the series)", "activity change (%)": "30.14", "curve as filed": "activator"}
{"compound": "CN1CCN(c2ncc3nc(-c4cccs4)c(=O)n(-c4ccccc4)c3n2)CC1", "tested on / at": "at 7.69 µM (top of the series)", "activity change (%)": "38.66", "curve as filed": "activator"}
{"compound": "COc1ccc(-c2nc3cnc(Oc4cccc(Cl)c4)nc3n(C3CC3)c2=O)cc1", "tested on / at": "at 7.69 µM (top of the series)", "activity change (%)": "41.14", "curve as filed": "activator"}
{"compound": "c1csc(CNc2ncnc3ccc(-c4ccc5c(c4)OCO5)cc23)c1", "tested on / at": "at 7.69 µM (top of the series)", "activity change (%)": "-50.26", "curve as filed": "inhibitor"}
{"compound": "Cc1c(N(C)C)c(=O)n(-c2ccccc2)n1C", "tested on / at": "at 17.2 µM (top of the series)", "activity change (%)": "-4.452", "curve as filed": "inhibitor"}
{"compound": "COc1ccc(CNc2ncnc3ccc(-c4ccc(N(C)C)cc4)cc23)c(OC)c1", "tested on / at": "at 7.69 µM (top of the series)", "activity change (%)": "-36.28", "curve as filed": "inhibitor"}
{"compound": "CN(C)CCCN1c2ccccc2Sc2ccc(C(F)(F)F)cc21", "tested on / at": "at 17.2 µM (top of the series)", "activity change (%)": "47.52", "curve as filed": "activator"}
{"compound": "CCN(CCCl)Cc1ccccc1Br", "tested on / at": "at 38 µM (top of the series)", "activity change (%)": "13.17", "curve as filed": "inhibitor"}
{"compound": "CCCCC[C@H](O)/C=C/[C@H]1C=CC(=O)[C@@H]1C/C=C\\CCCC(=O)O", "tested on / at": "at 17.2 µM (top of the series)", "activity change (%)": "31.93", "curve as filed": "activator"}
{"compound": "O=c1c(-c2ccc(Cl)cc2)nc2cnc(N3CCOCC3)nc2n1Cc1ccc(F)cc1", "tested on / at": "at 7.69 µM (top of the series)", "activity change (%)": "93.05", "curve as filed": "activator"}
{"compound": "CSc1ccc2c(c1)N(CC[C@H]1CCCCN1C)c1ccccc1S2", "tested on / at": "at 17.2 µM (top of the series)", "activity change (%)": "58.91", "curve as filed": "activator"}
{"compound": "N#CCCn1c(=O)c(-c2ccc(Cl)cc2)nc2cnc(N3CCNCC3)nc21", "tested on / at": "at 7.69 µM (top of the series)", "activity change (%)": "124.7", "curve as filed": "activator"}
{"compound": "O=C(Oc1ccccc1)N1CCC2(CCCN(C(c3ccccc3)c3ccccc3)C2)CC1", "tested on / at": "at 7.69 µM (top of the series)", "activity change (%)": "40.48", "curve as filed": "activator"}
{"compound": "Nc1ncnc2c1ncn2[C@@H]1O[C@@H](COP(=O)(O)OP(=O)(O)OP(=O)(O)OP(=O)(O)OC[C@@H]2O[C@@H](n3cnc4c(N)ncnc43)[C@@H](O)[C@H]2O)[C@H](O)[C@@H]1O", "tested on / at": "at 38 µM (top of the series)", "activity change (%)": "117.2", "curve as filed": "activator"}
{"compound": "COc1cccc(Nc2ncc3nc(-c4ccc(F)cc4)c(=O)n(C[C@H]4CCCO4)c3n2)c1", "tested on / at": "at 7.69 µM (top of the series)", "activity change (%)": "-34.7", "curve as filed": "inhibitor"}
{"compound": "Cc1cccc(CNc2cc(-c3cccc(NS(C)(=O)=O)c3)ncn2)c1", "tested on / at": "at 7.69 µM (top of the series)", "activity change (%)": "-32.55", "curve as filed": "inhibitor"}
{"compound": "N#C/C(=C\\c1ccc(O)c(O)c1)C(=O)NCCCc1ccccc1", "tested on / at": "at 38 µM (top of the series)", "activity change (%)": "-38.21", "curve as filed": "inhibitor"}

Data taken from PubChem BioAssay AID357, deposited by NCATS (2005).